The test system of the experiment is L1210 leukemia iv in BDF1 mice, survival T/C. In words: NCI In Vivo Anticancer Drug Screen. Data for tumor model L1210 Leukemia (intravenous) in B6D2F1 (BDF1) mice. The following applies: T/C endpoint: mean survival time, higher T/C = longer survival. How it is done:
The antitumor activity of compounds was measured in mice bearing transplantable tumors. Survival or tumor size were measured and the results are expressed as the measurement made in the treated group (T) divided by the measurement made in the vehicle treated control group (C). The tumor model used in this assay is L1210 Leukemia (intravenous) in B6D2F1 (BDF1) mice

The list is a part of this screen's results and no random one: it gathers tests that were run many times, whatever their T/C, doses with no T/C, and many T/C values between a quarter and a half above the control. Further doses and runs are listed elsewhere. T/C: endpoint of the treated group in % of that of the vehicle group. Some doses have a count of surviving animals in place of a T/C: the source files T/C as zero there, which appears to mark a toxic dose or a test without result, not a measured value. Some survivor counts are full or nearly so, which does not show that the dose was tolerated: the source hardly ever lists a survival T/C far under the control, and the zero likely stands for such cases as well. Counts of survivors are from the toxicity check (mostly the fifth day) where no day follows; animals may have died later. Schedule codes are those of the source, taken here to give the interval after Q, in days (D) or hours (H), and the number of doses after X. Some entries hold several experiments; the values are given in rising order. For survival time, this PubChem deposit counts one and a half times the control or more as active, and values a quarter to a half above the control carry no call in these data; other NCI protocols may use other cut-offs. Brackets with × count equal records among those shown. Some T/C values carry the count of animals alive at the toxicity check (mostly the fifth day); without a count, all were alive then.

For the compound `O=P1(N(CCCl)CCCl)NCCCO1` (stereo not drawn), the T/C was 139 % of control (dose: 53.0 mg/kg/injection, schedule: Q04DX004 (ip), vehicle: saline, evaluated on day 3); 139 % of control (dose: 53.0 mg/kg/injection, schedule: Q04DX004 (ip), vehicle: saline, evaluated on day 60); 128 and 147 % of control (dose: 59.0 mg/kg/injection, schedule: Q01DX001 (ip), vehicle: saline); 128 % of control (dose: 60.0 mg/kg/injection, schedule: Q01DX001 (ip), vehicle: saline); 144 % of control (dose: 80.0 mg/kg/injection, schedule: Q01DX001 (ip), vehicle: saline); 202 % of control (dose: 100.0 mg/kg/injection, schedule: Q01DX001 (ip), vehicle: saline, evaluated on day 3). In addition, the T/C is, setting by setting: (dose: 100.0 mg/kg/injection, schedule: Q01DX001 (ip), vehicle: saline, evaluated on day 45) 159, 187, 209 % of control; (dose: 125.0 mg/kg/injection, schedule: Q01DX001 (ip), vehicle: saline, evaluated on day 45) 166, 205, 236 % of control; (dose: 125.0 mg/kg/injection, schedule: Q01DX001 (ip), vehicle: saline, evaluated on day 60) 212 % of control; (dose: 150.0 mg/kg/injection, schedule: Q01DX001 (ip), vehicle: saline, evaluated on day 3) 226, 235, 247 % of control; (dose: 150.0 mg/kg/injection, schedule: Q01DX001 (ip), vehicle: saline, evaluated on day 45) 217, 252, 256 % of control; (dose: 200.0 mg/kg/injection, schedule: Q01DX001 (ip), vehicle: saline, evaluated on day 3) 142, 270, 282, 287 % of control. Besides, the T/C was 231, 251, 265, 384 % of control (dose: 200.0 mg/kg/injection, schedule: Q01DX001 (ip), vehicle: saline, evaluated on day 45); 104 and 340 % of control (dose: 250.0 mg/kg/injection, schedule: Q01DX001 (ip), vehicle: saline, evaluated on day 3); 316, 429, 474, 592 % of control (dose: 250.0 mg/kg/injection, schedule: Q01DX001 (ip), vehicle: saline, evaluated on day 45); 241 % of control (dose: 250.0 mg/kg/injection, schedule: Q01DX001 (ip), vehicle: saline, evaluated on day 60); 139, 338, 373, 385, 476, 483, 517 % of control (dose: 300.0 mg/kg/injection, schedule: Q01DX001 (ip), vehicle: saline, evaluated on day 3); 433, 513, 548 % of control (dose: 300.0 mg/kg/injection, schedule: Q01DX001 (ip), vehicle: saline, evaluated on day 45). In addition, the T/C by setting is: (dose: 375.0 mg/kg/injection, schedule: Q01DX001 (ip), vehicle: saline, evaluated on day 3) 309, 388, 414 % of control; (dose: 375.0 mg/kg/injection, schedule: Q01DX001 (ip), vehicle: saline, evaluated on day 45) 398, 439, 608 % of control. Further, under “dose: 468.0 mg/kg/injection, schedule: Q01DX001 (ip), vehicle: saline”, the survivor count was 6 of 10.
Consider `O=c1[nH]c(=O)n(C2CC(O)C(CO)O2)cc1F` (stereo not drawn), for which the T/C (dose: 500.0 mg/kg/injection, schedule: Q01DX001 (ip), vehicle: saline) is 138 % of control.
With `CCCCCCCCCCCCCCCC(=O)OCC1OC(n2ccc(N)nc2=O)C(O)C1O` (stereo not drawn), the T/C reads like this: (dose: 5.0 mg/kg/injection, schedule: Q01DX005 (ip), vehicle: other) 125 % of control; (dose: 10.0 mg/kg/injection, schedule: Q01DX005 (ip), vehicle: other) 136 and 143 % of control; (dose: 15.0 mg/kg/injection, schedule: Q01DX005 (ip), vehicle: other) 148 and 149 % of control; (dose: 25.0 mg/kg/injection, schedule: Q01DX001 (ip), vehicle: other) 113, 138, 158, 192 % of control; (dose: 50.0 mg/kg/injection, schedule: Q01DX001 (ip), vehicle: other) 153, 159, 183, 196 % of control; (dose: 100.0 mg/kg/injection, schedule: Q01DX001 (ip), vehicle: other) 211, 220, 256, 287 % of control. In addition, the T/C runs as follows: (dose: 150.0 mg/kg/injection, schedule: Q01DX001 (ip), vehicle: other) 194, 280, 338, 345 % of control; (dose: 200.0 mg/kg/injection, schedule: Q01DX001 (ip), vehicle: other) 237, 275 (2×), 307 % of control; (dose: 250.0 mg/kg/injection, schedule: Q01DX001 (ip), vehicle: other) 124, 192, 240, 246 % of control.
Regarding `O=NN(CCF)C(=O)NCCCl`, the survivor count reads like this: (dose: 48.0 mg/kg/injection, schedule: Q01DX001 (ip), vehicle: Klucel (hydroxypropylcellulose) (HPC)) 6 of 10; (dose: 71.0 mg/kg/injection, schedule: Q01DX001 (ip), vehicle: Klucel (hydroxypropylcellulose) (HPC)) 2 of 10 and 6 of 10.
Turning to `NC(=S)N/N=C/c1ccccn1`, the T/C runs as follows: (dose: 5.0 mg/kg/injection, schedule: Q01DX008 (ip), vehicle: other) 145 % of control; (dose: 5.0 mg/kg/injection, schedule: Q06HX008 (ip), vehicle: other) 141 % of control; (dose: 5.0 mg/kg/injection, schedule: Q12HX008 (ip), vehicle: other) 148 % of control; (dose: 8.0 mg/kg/injection, schedule: Q01HX008 (ip), vehicle: other) 129 % of control.
For `N[C@@H](Cc1ccc(N(CCCl)CCCl)cc1)C(=O)O`, the T/C is, setting by setting: (dose: 6.6 mg/kg/injection, schedule: Q01DX001 (ip), vehicle: saline) 147 % of control; (dose: 7.0 mg/kg/injection, schedule: Q01DX001 (ip), vehicle: carboxymethylcellulose (CMC)) 125 % of control; (dose: 7.5 mg/kg/injection, schedule: Q01DX001 (ip), vehicle: saline) 144 % of control; (dose: 9.0 mg/kg/injection, schedule: Q01DX001 (ip), vehicle: carboxymethylcellulose (CMC)) 127 % of control; (dose: 9.5 mg/kg/injection, schedule: Q01DX001 (ip), vehicle: Klucel (hydroxypropylcellulose) (HPC), evaluated on day 3) 137 % of control; (dose: 9.5 mg/kg/injection, schedule: Q01DX001 (ip), vehicle: Klucel (hydroxypropylcellulose) (HPC), evaluated on day 60) 137 % of control. For the same compound, the T/C reads like this: (dose: 10.0 mg/kg/injection, schedule: Q01DX001 (ip), vehicle: saline) 146 and 147 % of control; (dose: 14.0 mg/kg/injection, schedule: Q01DX001 (ip), vehicle: carboxymethylcellulose (CMC)) 136 % of control [9 of 10 alive]; (dose: 29.0 mg/kg/injection, schedule: Q01DX001 (ip), vehicle: carboxymethylcellulose (CMC)) 131 % of control.
Turning to `COc1cccc2c1C(=O)c1c(O)c3c(c(O)c1C2=O)CC(O)(C(=O)CO)CC3OC1CC(N)C(O)C(C)O1` (stereo not drawn), the T/C (dose: 2.5 mg/kg/injection, schedule: Q01DX005 (iv), vehicle: saline) is 128 % of control [8 of 9 alive]. The survivor count reads like this: (dose: 6.0 mg/kg/injection, schedule: Q01DX005 (iv), vehicle: saline) 9 of 9; (dose: 7.0 mg/kg/injection, schedule: Q01DX005 (iv), vehicle: saline) 8 of 9.
Turning to `O=c1[nH]cc(F)c(=O)[nH]1`, the T/C was 134 % of control (dose: 30.0 mg/kg/injection, schedule: Q01DX005 (ip), vehicle: saline, evaluated on day 5) and 134 % of control (dose: 30.0 mg/kg/injection, schedule: Q01DX005 (ip), vehicle: saline, evaluated on day 45).
As to `CN(Cc1cnc2nc(N)nc(N)c2n1)c1ccc(C(=O)N[C@@H](CCC(=O)O)C(=O)O)cc1`, the T/C (dose: 110.0 mg/kg/injection, schedule: Q01DX001 (ip), vehicle: other) is 146 % of control.
With `Nc1nc(=S)c2[nH]cnc2[nH]1`, the T/C is, setting by setting: (dose: 0.4 mg/kg/injection, schedule: Q01HX008 (ip), vehicle: alkali diluted with saline) 149 % of control; (dose: 0.4 mg/kg/injection, schedule: Q03HX008 (ip), vehicle: alkali diluted with saline) 125 % of control; (dose: 0.6 mg/kg/injection, schedule: Q03HX008 (ip), vehicle: alkali diluted with saline) 146 % of control; (dose: 0.6 mg/kg/injection, schedule: Q06HX008 (ip), vehicle: alkali diluted with saline) 132 % of control; (dose: 0.6 mg/kg/injection, schedule: Q12HX008 (ip), vehicle: alkali diluted with saline) 131 % of control; (dose: 3.2 mg/kg/injection, schedule: Q01DX001 (ip), vehicle: alkali diluted with saline) 146 % of control.

The record behind these values is PubChem BioAssay AID254 (DTP/NCI, 2004).
